According to the supplement of paper PMC10338343:
± gives the standard deviation. Only a part is listed here, and it is no random draw. The uncertainty is large for many entries. Some of the results follow.

Tests used:
[1] = system: MILI (PIWIL2) piRISC loaded with L1MC piRNA (26 nt); test: pre-steady-state target cleavage rate (min^-1); higher = faster piRNA-guided slicing of the target; conditions: guide: L1MC piRNA 5'p-UAACUAAAUACUAUGCAAGCUGUAGG
Procedure, shortened: (§1)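 Active affinity-purified piRISC carrying one synthetic guide (1 nM) was mixed with a transcribed, DNA-blocked target RNA library […] in HEPES–potassium acetate buffer at 33 °C for 0–8 or 0–960 min, with or without 500 nM GTSF1 partner protein. Uncleaved targets were then sequenced and normalised to depth and to weakly complementary targets. Three trials were pooled, and k3 was capped at 0.0001 min^-1. A burst-and-steady-state fit was applied to obtain the pre-steady-state cleavage rate.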

[2] = system: EfPiwi piRISC loaded with L1MC piRNA (26 nt); test: pre-steady-state target cleavage rate (min^-1); guide: L1MC piRNA 5'p-UAACUAAAUACUAUGCAAGCUGUAGG; higher = faster piRNA-guided slicing of the target
Procedure, shortened: as §1

[3] = system: MIWI (PIWIL1) piRISC loaded with L1MC piRNA (30 nt); test: pre-steady-state target cleavage rate (min^-1); MIWI and MILI are mouse PIWI proteins and EfPiwi is from a freshwater sponge; tags in brackets are library labels; higher = faster piRNA-guided slicing of the target; conditions: guide: L1MC piRNA 5'p-UAACUAAAUACUAUGCAAGCUGUAGGUCCU; auxiliary factor: none (no GTSF1)
Procedure, shortened: as §1

[4] = auxiliary factor: 500 nM mouse GTSF1
[5] = auxiliary factor: none (no GTSF1)
[6] = auxiliary factor: 500 nM Ephydatia muelleri Gtsf1
[7] = auxiliary factor: none (no Gtsf1)

Sequence | pre-steady-state target cleavage rate [1, 4] | pre-steady-state target cleavage rate [1, 5] | pre-steady-state target cleavage rate [2, 6] | pre-steady-state target cleavage rate [2, 7] | pre-steady-state target cleavage rate [3]
UCCUGGAUGUGCUUGCAUAGUAUUAACUUA | 0.00166 ± 0.0068 | 0.00143 ± 0.0052 | 0.000303 ± 0.019 | 0.000318 ± 0.026 | –
UCCUGGUACACCUUGCAUAGUAUUAAGUUA | 0.218 ± 0.066 | 0.00158 ± 0.0067 | 0.00356 ± 0.0032 | 0.000237 ± 0.046 | –
UCCUGCUACAGCUAGCAUAGUAUUUACUUA | 0.351 ± 0.051 | 0.00199 ± 0.0044 | 0.00364 ± 0.0025 | 0.000367 ± 0.017 | –
UCCUCCUACAGCUUGCAUAGAUUUUAGAAA | 0.0147 ± 0.0053 | 0.000962 ± 0.0045 | 0.00312 ± 0.0024 | 0.00037 ± 0.0099 | 0.000378 ± 0.0074
UCCUGGUACAGCUUGCAUAGUAUUUAGUUUA | 0.375 ± 0.028 | 0.0152 ± 0.005 | 0.0765 ± 0.024 | 0.00213 ± 0.012 | –
UCCUGGAACAGCUUGCAUAGUAUAUUAGUUA | 0.247 ± 0.019 | 0.00778 ± 0.0024 | 0.0104 ± 0.0043 | 0.00267 ± 0.0063 | –
UCCUGGAAGAGCUUGCAUAGUAUUUACUUA | 0.0737 ± 0.02 | 0.00232 ± 0.0032 | 0.00239 ± 0.0034 | 0.000721 ± 0.013 | –
UCCUGGAACAGCAAGCAUAGUAUUUUCAAA | 0.0642 ± 0.018 | 0.000228 ± 0.014 | 0.00211 ± 0.0032 | 0.000337 ± 0.029 | –
UCCUGGAACAGCAUGCAUACUAUUUAGUUA | 0.0727 ± 0.0093 | 0.00273 ± 0.0026 | 0.00762 ± 0.0026 | 0.000809 ± 0.011 | –
UCCUGGAACAGCUUGCAAAGAAUUUAGUUA | 0.102 ± 0.037 | 0.00235 ± 0.0032 | 0.000753 ± 0.0045 | 0.00058 ± 0.011 | –
UCCUGGAUGAGCUGCAUAGUAUUUAGUUA | 0.101 ± 0.013 | 0.00501 ± 0.0028 | 0.00786 ± 0.0028 | 0.00139 ± 0.007 | –
UCCUGGAUGUCGUAGCAUAGAAUUUAGUUA | 0.0013 ± 0.006 | 0.000766 ± 0.0081 | 0.000277 ± 0.0098 | 0.000415 ± 0.017 | –
UCCUGGUACAGCUUGCAUUGUAUUUAGUAA | 0.112 ± 0.024 | 0.00248 ± 0.0052 | 0.00142 ± 0.007 | 0.000717 ± 0.014 | –
UCCUGGAUGUCGUUGCAUCAGUAUUUAGUUA | 0.00144 ± 0.0077 | 0.000683 ± 0.0082 | 0.000213 ± 0.022 | 0.000185 ± 0.038 | –
UCCUGGAUCAGCUUGCAAAGUAUAUAGUUA | 0.104 ± 0.012 | 0.00771 ± 0.0027 | 0.00171 ± 0.0054 | 0.000646 ± 0.013 | –
UCCUGGAACAGCUUGCAUAGUAUUUAAGUUA | 0.195 ± 0.029 | 0.00781 ± 0.0028 | 0.0138 ± 0.0052 | 0.00182 ± 0.0071 | –

Full records, quoted from the list. Values in the order: pre-steady-state target cleavage rate [1, 4]	pre-steady-state target cleavage rate [1, 5]	pre-steady-state target cleavage rate [2, 6]	pre-steady-state target cleavage rate [2, 7]	pre-steady-state target cleavage rate [3]
UCCUGGAUGUGCUUGCAUAGUAUUAACUUA reads 0.00166 ± 0.0068	0.00143 ± 0.0052	0.000303 ± 0.019	0.000318 ± 0.026	–
UCCUGGAUGUCGUUGCAUCAGUAUUUAGUUA reads 0.00144 ± 0.0077	0.000683 ± 0.0082	0.000213 ± 0.022	0.000185 ± 0.038	–

(next part)

Sequence | pre-steady-state target cleavage rate [1, 4] | pre-steady-state target cleavage rate [1, 5] | pre-steady-state target cleavage rate [2, 6] | pre-steady-state target cleavage rate [2, 7] | pre-steady-state target cleavage rate [3]
UCCUGGUACAGCUUGCUUAGUUUUUAGUUA | 0.0347 ± 0.011 | 0.00709 ± 0.0023 | 0.00346 ± 0.003 | 0.000615 ± 0.021 | –
UCCUGGAUGAGCUUGCUAUGUAUUUAGAAA | 0.00149 ± 0.0063 | 0.00158 ± 0.0035 | 0.00081 ± 0.0071 | 0.000686 ± 0.013 | 0.00104 ± 0.0065
UCCUGGUACAGCUUGCAUACUAAUUAGUUA | 0.0462 ± 0.019 | 0.00356 ± 0.0031 | 0.0011 ± 0.0041 | 0.000231 ± 0.016 | –
UCCUGGAUGAGCUUGCAUAGUUUUUAGAUA | 0.00379 ± 0.0042 | 0.00127 ± 0.0054 | 0.00154 ± 0.0037 | < 0.0001 | –
UCCUGGAUGAGCUUGCAUAGUGUUUAGUUA | 0.117 ± 0.016 | 0.00732 ± 0.0031 | 0.00987 ± 0.0028 | 0.000872 ± 0.015 | –
UCCUGGAUGUCGAACCUUAGUAUUUAGUUA | 0.000921 ± 0.0056 | 0.00069 ± 0.0048 | 0.000231 ± 0.0096 | < 0.0001 | 0.00034 ± 0.013
UCCUGGAUCAGCUUGCAUAGUAUAUAGAAA | 0.115 ± 0.03 | 0.00155 ± 0.0043 | 0.00112 ± 0.0038 | 0.000392 ± 0.018 | 0.00267 ± 0.0043
UCCUGGAUCAGCUUGCAUAGAAUUUAGUUA | 0.0368 ± 0.0086 | 0.00356 ± 0.002 | 0.00327 ± 0.0015 | 0.000935 ± 0.0083 | –
UCCUGGAACACGUUGCAUAGUAUUUACAAA | 0.0879 ± 0.017 | 0.00155 ± 0.0041 | 0.000348 ± 0.02 | 0.000109 ± 0.03 | 0.00174 ± 0.0047
UCCUGGUUCAGCUUGCAUAGUAUAUAGUUA | 0.198 ± 0.034 | 0.0112 ± 0.0032 | 0.00607 ± 0.0027 | 0.000694 ± 0.017 | –
UCCUGCUACAGCUUGCAAAGUAUUUACUUA | 0.0653 ± 0.0078 | 0.00269 ± 0.0028 | 0.00241 ± 0.0031 | 0.000227 ± 0.031 | –
UCCUGGAUGAGCUUGCAUAGUAUUUAGGUUA | 0.195 ± 0.028 | 0.0044 ± 0.0031 | 0.0031 ± 0.002 | 0.000395 ± 0.012 | –
UCCUGGAACAGCUUGCAAAGUAAUUAGUUA | 0.131 ± 0.018 | 0.00424 ± 0.0022 | 0.00403 ± 0.002 | 0.00111 ± 0.0073 | –
UCCUGGAUGUCGAACGAUAGUAUUUAGUUU [g2:g14:cont:t1U] | 0.000148 ± 0.023 | 0.000376 ± 0.013 | 0.000119 ± 0.024 | < 0.0001 | 0.000556 ± 0.012
UCCUGGAUGUCGAUGCUAAGUAUUUAGUUA | 0.000987 ± 0.0085 | 0.000421 ± 0.011 | 0.000271 ± 0.0094 | 0.000166 ± 0.043 | 0.000197 ± 0.013
